Results are given in words; binding and its absence hold for the method and conditions named. Some entries that bind do so weakly or less than the wild type.
Target: T1, Recombinant extracellular domain of human RON (rhRON) (human) (UniProt Q04912)
T1 sequence: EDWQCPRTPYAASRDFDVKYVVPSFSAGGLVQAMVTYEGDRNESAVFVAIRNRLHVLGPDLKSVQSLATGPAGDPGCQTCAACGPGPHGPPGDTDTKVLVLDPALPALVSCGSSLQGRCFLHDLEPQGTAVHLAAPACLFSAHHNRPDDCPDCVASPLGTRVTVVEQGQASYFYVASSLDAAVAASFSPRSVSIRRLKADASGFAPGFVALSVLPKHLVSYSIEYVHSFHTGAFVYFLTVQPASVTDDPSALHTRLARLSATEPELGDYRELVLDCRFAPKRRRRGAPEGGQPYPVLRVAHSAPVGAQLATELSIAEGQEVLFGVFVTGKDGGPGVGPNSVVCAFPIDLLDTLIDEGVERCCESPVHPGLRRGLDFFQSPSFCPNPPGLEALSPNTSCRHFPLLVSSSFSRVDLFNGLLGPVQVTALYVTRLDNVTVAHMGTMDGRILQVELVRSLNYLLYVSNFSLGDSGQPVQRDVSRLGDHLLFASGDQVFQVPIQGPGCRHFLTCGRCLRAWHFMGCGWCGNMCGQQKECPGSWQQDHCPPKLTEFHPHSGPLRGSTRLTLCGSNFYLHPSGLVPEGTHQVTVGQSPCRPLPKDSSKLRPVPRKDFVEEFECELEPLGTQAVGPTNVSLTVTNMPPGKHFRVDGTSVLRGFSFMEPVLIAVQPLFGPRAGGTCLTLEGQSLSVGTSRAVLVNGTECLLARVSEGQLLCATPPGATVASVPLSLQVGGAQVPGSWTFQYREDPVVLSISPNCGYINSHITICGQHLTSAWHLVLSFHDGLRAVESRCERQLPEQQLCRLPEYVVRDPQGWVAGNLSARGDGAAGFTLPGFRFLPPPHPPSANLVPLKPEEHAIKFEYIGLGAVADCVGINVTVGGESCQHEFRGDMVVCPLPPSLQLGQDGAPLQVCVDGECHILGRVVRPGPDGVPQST
Assay: ELISA; ligand competition: rhRON (1 µg/ml) immobilised directly; dilution series of purified nanobodies starting at 1 µM added together with 2 nM biotinylated MSP; MSP detected by extravidin peroxidase; both purified

Amino acid sequences for entries named in this document (tags omitted). Residues count along the entry.
UniProt P26927, residues 19-711: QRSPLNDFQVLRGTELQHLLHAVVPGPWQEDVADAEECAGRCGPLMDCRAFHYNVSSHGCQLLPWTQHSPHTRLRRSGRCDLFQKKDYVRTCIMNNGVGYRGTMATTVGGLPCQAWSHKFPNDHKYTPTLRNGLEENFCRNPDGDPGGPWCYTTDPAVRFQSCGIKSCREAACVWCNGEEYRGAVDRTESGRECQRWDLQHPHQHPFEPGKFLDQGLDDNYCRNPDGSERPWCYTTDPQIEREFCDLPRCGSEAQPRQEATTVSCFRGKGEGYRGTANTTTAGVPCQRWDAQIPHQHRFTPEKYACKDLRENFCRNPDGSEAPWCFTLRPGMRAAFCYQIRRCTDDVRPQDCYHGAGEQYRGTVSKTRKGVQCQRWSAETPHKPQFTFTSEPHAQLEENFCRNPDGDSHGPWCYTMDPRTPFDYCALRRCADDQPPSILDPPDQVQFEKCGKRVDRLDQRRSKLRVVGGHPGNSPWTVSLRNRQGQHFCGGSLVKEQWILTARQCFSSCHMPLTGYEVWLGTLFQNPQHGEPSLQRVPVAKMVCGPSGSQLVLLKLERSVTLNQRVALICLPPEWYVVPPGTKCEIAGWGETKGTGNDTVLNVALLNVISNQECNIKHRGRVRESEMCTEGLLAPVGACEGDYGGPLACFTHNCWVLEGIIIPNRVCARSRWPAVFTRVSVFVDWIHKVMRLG

Question: For “macrophage-stimulating protein (MSP) (from UniProt P26927 19-711) (ligand)”, which binding is on record?
Answer: binds

— publication PMC5385344, “Large Diversity of Functional Nanobodies from a Camelid Immune Library Revealed by an Alternative Analysis of Next-Generation Sequencing Data” (Frontiers in Immunology, 2017)
